In patent publication US20070043102A1, “Oral suspension of tegaserod” (priority 2003, published 2007):

Experiment: Masking of the bitter taste of tegaserod (palatability, subjective impression of one test person)
Procedure: The palatability of the resulting suspensions is determined by the subjective impression of one test person. Thus, it is found by this evaluation that the bitter taste of tegaserod is masked in apple juice and in orange juice but not in water.

With `CCCCCNC(=N)NN=Cc1c[nH]c2ccc(OC)cc12` [Tegaserod, 3-(5-methoxy-1H-indol-3-yl-methylene)-N-pentylcarbazimidamide] the bitter taste masked (in apple juice) was “masked”, the bitter taste masked (in orange juice) was “masked” and the bitter taste masked (in water) was “not”.
